# Results published in doi:10.1101/2024.01.08.574726.
# Results are given in words; binding and its absence hold for the method and conditions named. Some results given as binding are weak or reduced against the parent protein; the word gives no strength. For some assays here: Tags and fused reporters may be left off the sequences shown.
# T1: ARC3_(41-598), partner of AD-ARC6 derivatives in the two-hybrid (Arabidopsis thaliana) (UniProt Q6F6B5)
# T1 sequence: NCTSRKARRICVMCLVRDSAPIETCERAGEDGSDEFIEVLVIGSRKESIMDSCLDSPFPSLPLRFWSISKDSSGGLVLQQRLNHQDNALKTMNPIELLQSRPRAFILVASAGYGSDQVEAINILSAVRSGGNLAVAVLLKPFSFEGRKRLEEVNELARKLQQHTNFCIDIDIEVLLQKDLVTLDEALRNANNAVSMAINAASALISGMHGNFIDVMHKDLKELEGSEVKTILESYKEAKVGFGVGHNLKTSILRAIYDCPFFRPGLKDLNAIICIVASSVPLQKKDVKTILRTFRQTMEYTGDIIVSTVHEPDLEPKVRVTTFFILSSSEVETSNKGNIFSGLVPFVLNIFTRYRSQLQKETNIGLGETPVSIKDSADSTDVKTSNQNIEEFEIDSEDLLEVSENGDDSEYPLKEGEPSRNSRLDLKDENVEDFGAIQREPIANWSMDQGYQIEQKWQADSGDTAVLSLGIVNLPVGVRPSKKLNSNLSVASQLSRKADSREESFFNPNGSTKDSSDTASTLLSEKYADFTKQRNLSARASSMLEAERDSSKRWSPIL
# T2: ARC3_(41-741), partner of AD-ARC6 derivatives in the two-hybrid (Arabidopsis thaliana) (UniProt Q6F6B5)
# T2 sequence: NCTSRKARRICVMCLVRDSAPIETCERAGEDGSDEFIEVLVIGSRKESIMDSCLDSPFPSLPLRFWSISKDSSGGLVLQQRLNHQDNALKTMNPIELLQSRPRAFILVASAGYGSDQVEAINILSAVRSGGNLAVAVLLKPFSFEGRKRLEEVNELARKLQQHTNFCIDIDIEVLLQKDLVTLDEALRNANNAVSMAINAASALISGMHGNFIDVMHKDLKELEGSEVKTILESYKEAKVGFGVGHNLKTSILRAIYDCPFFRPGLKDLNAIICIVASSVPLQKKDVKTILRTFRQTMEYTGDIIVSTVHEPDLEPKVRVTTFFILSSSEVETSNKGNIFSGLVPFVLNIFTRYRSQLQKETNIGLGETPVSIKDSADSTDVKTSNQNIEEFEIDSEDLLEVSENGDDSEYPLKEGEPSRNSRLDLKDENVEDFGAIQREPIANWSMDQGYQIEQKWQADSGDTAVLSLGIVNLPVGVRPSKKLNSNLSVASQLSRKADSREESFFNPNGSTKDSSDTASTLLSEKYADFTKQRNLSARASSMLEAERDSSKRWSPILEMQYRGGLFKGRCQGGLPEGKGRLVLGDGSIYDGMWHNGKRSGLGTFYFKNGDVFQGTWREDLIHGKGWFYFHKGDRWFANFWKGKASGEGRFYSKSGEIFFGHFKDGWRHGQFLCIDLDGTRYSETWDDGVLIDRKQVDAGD
# T3: ARC3_(598-741) (Arabidopsis thaliana) (UniProt Q6F6B5)
# T3 sequence: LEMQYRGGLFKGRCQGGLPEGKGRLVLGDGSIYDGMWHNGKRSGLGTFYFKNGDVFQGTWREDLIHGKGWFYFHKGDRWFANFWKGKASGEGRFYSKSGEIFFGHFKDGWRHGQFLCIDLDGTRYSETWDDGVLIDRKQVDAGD
# T4: BD-FtsZ1 (Arabidopsis thaliana) (UniProt Q42545)
# T4 sequence: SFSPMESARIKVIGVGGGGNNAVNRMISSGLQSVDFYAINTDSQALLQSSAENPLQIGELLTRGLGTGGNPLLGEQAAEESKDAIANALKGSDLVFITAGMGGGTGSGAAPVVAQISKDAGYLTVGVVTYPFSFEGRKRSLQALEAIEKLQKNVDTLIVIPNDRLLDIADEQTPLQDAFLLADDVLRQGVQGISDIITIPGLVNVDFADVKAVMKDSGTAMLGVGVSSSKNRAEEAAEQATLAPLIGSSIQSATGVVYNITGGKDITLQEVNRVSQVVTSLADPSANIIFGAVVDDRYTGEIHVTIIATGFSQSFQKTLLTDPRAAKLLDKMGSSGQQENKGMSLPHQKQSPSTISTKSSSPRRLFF
# T5: pGBKT7-ARC6JLD (Arabidopsis thaliana) (UniProt Q9FIG9)
# T5 sequence: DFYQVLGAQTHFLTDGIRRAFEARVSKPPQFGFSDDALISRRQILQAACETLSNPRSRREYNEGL
# Key:
# Test in all cases: two-hybrid
# [1] = target: T1, ARC3_(41-598), partner of AD-ARC6 derivatives in the two-hybrid (Arabidopsis thaliana)
# [2] = target: T2, ARC3_(41-741), partner of AD-ARC6 derivatives in the two-hybrid (Arabidopsis thaliana)
# [3] = target: T3, ARC3_(598-741) (Arabidopsis thaliana)
# [4] = target: T4, BD-FtsZ1 (Arabidopsis thaliana)
# [5] = target: T5, pGBKT7-ARC6JLD (Arabidopsis thaliana)
Binder,binding [1],binding [2],binding [3],binding [4],binding [5]
"ARC6_(68-614) (domain or fragment, UniProt Q9FIG9 68-614) ATLVSPPPSIDRPERHVPIPIDFYQVLGAQTHFLTDGIRRAFEARVSKPPQFGFSDDALISRRQILQAACETLSNPRSRREYNEGLLDDEEATVITDVPWDKVPGALCVLQEGGETEIVLRVGEALLKERLPKSFKQDVVLVMALAFLDVSRDAMALDPPDFITGYEFVEEALKLLQEEGASSLAPDLRAQIDETLEEITPRYVLELLGLPLGDDYAAKRLNGLSGVRNILWSVGGGGASALVGGLTREKFMNEAFLRMTAAEQVDLFVATPSNIPAESFEVYEVALALVAQAFIGKKPHLLQDADKQFQQLQQAKVMAMEIPAMLYDTRNNWEIDFGLERGLCALLIGKVDECRMWLGLDSEDSQYRNPAIVEFVLENSNRDDNDDLPGLCKLLETWLAGVVFPRFRDTKDKKFKLGDYYDDPMVLSYLERVEVVQGSPLAAAAAMARIGAEHVKASAMQALQKVFPSRYTDRNSAEPKDVQETVFSVDPVGNNVGRDGEPGVFIAEAVRPSENFETNDYAIRAGVSESSVDETTVEMSVADMLKE",no binding,binds,binds,no binding,
"ARC3_(41-598), partner of the BD-FtsZ proteins in the two-hybrid (domain or fragment, UniProt Q6F6B5 41-598) NCTSRKARRICVMCLVRDSAPIETCERAGEDGSDEFIEVLVIGSRKESIMDSCLDSPFPSLPLRFWSISKDSSGGLVLQQRLNHQDNALKTMNPIELLQSRPRAFILVASAGYGSDQVEAINILSAVRSGGNLAVAVLLKPFSFEGRKRLEEVNELARKLQQHTNFCIDIDIEVLLQKDLVTLDEALRNANNAVSMAINAASALISGMHGNFIDVMHKDLKELEGSEVKTILESYKEAKVGFGVGHNLKTSILRAIYDCPFFRPGLKDLNAIICIVASSVPLQKKDVKTILRTFRQTMEYTGDIIVSTVHEPDLEPKVRVTTFFILSSSEVETSNKGNIFSGLVPFVLNIFTRYRSQLQKETNIGLGETPVSIKDSADSTDVKTSNQNIEEFEIDSEDLLEVSENGDDSEYPLKEGEPSRNSRLDLKDENVEDFGAIQREPIANWSMDQGYQIEQKWQADSGDTAVLSLGIVNLPVGVRPSKKLNSNLSVASQLSRKADSREESFFNPNGSTKDSSDTASTLLSEKYADFTKQRNLSARASSMLEAERDSSKRWSPIL",,,,binds,
"ARC6_(ΔJLD) (domain or fragment, UniProt Q9FIG9) ATLVSPPPSIDRPERHVPIPILDDEEATVITDVPWDKVPGALCVLQEGGETEIVLRVGEALLKERLPKSFKQDVVLVMALAFLDVSRDAMALDPPDFITGYEFVEEALKLLQEEGASSLAPDLRAQIDETLEEITPRYVLELLGLPLGDDYAAKRLNGLSGVRNILWSVGGGGASALVGGLTREKFMNEAFLRMTAAEQVDLFVATPSNIPAESFEVYEVALALVAQAFIGKKPHLLQDADKQFQQLQQAKVMAMEIPAMLYDTRNNWEIDFGLERGLCALLIGKVDECRMWLGLDSEDSQYRNPAIVEFVLENSNRDDNDDLPGLCKLLETWLAGVVFPRFRDTKDKKFKLGDYYDDPMVLSYLERVEVVQGSPLAAAAAMARIGAEHVKASAMQALQKVFPSRYTDRNSAEPKDVQETVFSVDPVGNNVGRDGEPGVFIAEAVRPSENFETNDYAIRAGVSESSVDETTVEMSVADMLKE",binds,binds,binds,,
"ARC6JLD (ARC6_(89-153)), as used in Figure 4A (domain or fragment, UniProt Q9FIG9 89-153) DFYQVLGAQTHFLTDGIRRAFEARVSKPPQFGFSDDALISRRQILQAACETLSNPRSRREYNEGL",,,binds,,
"cpHsp70-1 (protein, UniProt Q9STW6 1-718) MASSAAQIHVLGGIGFASSSSSKRNLNGKGGTFMPRSAFFGTRTGPFSTPTSAFLRMGTRNGGGASRYAVGPVRVVNEKVVGIDLGTTNSAVAAMEGGKPTIVTNAEGQRTTPSVVAYTKSGDRLVGQIAKRQAVVNPENTFFSVKRFIGRKMNEVDEESKQVSYRVVRDENNNVKLECPAINKQFAAEEISAQVLRKLVDDASRFLNDKVTKAVITVPAYFNDSQRTATKDAGRIAGLEVLRIINEPTAASLAYGFDRKANETILVFDLGGGTFDVSVLEVGDGVFEVLSTSGDTHLGGDDFDKRVVDWLAAEFKKDEGIDLLKDKQALQRLTEAAEKAKIELSSLTQTNMSLPFITATADGPKHIETTLTRAKFEELCSDLLDRVRTPVENSLRDAKLSFKDIDEVILVGGSTRIPAVQELVRKVTGKEPNVTVNPDEVVALGAAVQAGVLAGDVSDIVLLDVTPLSIGLETLGGVMTKIIPRNTTLPTSKSEVFSTAADGQTSVEINVLQGEREFVRDNKSLGSFRLDGIPPAPRGVPQIEVKFDIDANGILSVSAVDKGTGKKQDITITGASTLPKDEVDQMVQEAERFAKDDKEKRDAIDTKNQADSVVYQTEKQLKELGEKIPGEVKEKVEAKLQELKDKIGSGSTQEIKDAMAALNQEVMQIGQSLYNQPGAGGPGAGPSPGGEGASSGDSSSSKGGDGDDVIDADFTDSQ",,,,,no binding
"cpHsp70-2 (protein, UniProt Q9LTX9 1-718) MASSAAQIHILGGIGFPTSSSSSSTKNLDNKTNSIPRSVFFGNRTSPFTTPTSAFLRMGRRNNNASRYTVGPVRVVNEKVVGIDLGTTNSAVAAMEGGKPTIVTNAEGQRTTPSVVAYTKSKDRLVGQIAKRQAVVNPENTFFSVKRFIGRRMNEVAEESKQVSYRVIKDENGNVKLDCPAIGKQFAAEEISAQVLRKLVDDASRFLNDKVTKAVITVPAYFNDSQRTATKDAGRIAGLEVLRIINEPTAASLAYGFERKSNETILVFDLGGGTFDVSVLEVGDGVFEVLSTSGDTHLGGDDFDKRVVDWLASTFKKDEGIDLLKDKQALQRLTEAAEKAKIELSSLTQTNMSLPFITATADGPKHIETTLTRGKFEELCSDLLDRVRTPVENSLRDAKLSFKDIDEVILVGGSTRIPAVQDLVRKLTGKEPNVSVNPDEVVALGAAVQAGVLSGDVSDIVLLDVTPLSLGLETLGGVMTKIIPRNTTLPTSKSEVFSTAADGQTSVEINVLQGEREFVRDNKSIGSFRLDGIPPAPRGVPQIEVKFDIDANGILSVSASDKGTGKKQDITITGASTLPKDEVDTMVQEAERFAKEDKEKRDAIDTKNQADSVVYQTEKQLKELGEKIPGPVKEKVEAKLQELKEKIASGSTQEIKDTMAALNQEVMQIGQSLYNQPQPGGADSPPGGEASSSSDTSSSAKGGDNGGDVIDADFTDSN",,,,,no binding
